{"sequences": {"note": "By UniProt entry, the sequences of proteins in these tests, tags left out.", "UniProt P98170": "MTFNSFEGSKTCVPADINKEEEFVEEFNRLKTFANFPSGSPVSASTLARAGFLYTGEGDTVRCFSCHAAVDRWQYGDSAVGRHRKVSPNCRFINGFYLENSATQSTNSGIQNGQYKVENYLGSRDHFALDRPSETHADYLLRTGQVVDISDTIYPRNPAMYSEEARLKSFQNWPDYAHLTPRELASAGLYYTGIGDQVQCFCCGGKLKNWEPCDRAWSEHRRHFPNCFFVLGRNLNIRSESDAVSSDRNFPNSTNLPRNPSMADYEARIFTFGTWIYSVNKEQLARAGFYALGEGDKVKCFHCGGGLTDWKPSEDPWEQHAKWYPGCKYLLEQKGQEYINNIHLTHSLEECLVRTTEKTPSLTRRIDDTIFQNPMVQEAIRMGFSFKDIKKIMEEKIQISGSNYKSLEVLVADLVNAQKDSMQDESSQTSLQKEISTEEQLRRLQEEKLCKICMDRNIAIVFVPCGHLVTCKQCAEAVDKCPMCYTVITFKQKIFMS", "UniProt O15392": "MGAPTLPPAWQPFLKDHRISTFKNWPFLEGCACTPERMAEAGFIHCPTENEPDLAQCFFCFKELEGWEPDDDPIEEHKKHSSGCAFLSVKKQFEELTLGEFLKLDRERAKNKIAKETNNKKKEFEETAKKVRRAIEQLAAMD"}, "source": "paper PMC7203900", "assay_in_all_cases": "co-IP; endogenous proteins from HCT116 and RKO cells lysed in 1% Triton X-100, 50 mM Tris-Cl pH 7.4, 150 mM NaCl, 10 mM EDTA; precipitated with anti-survivin, anti-XIAP or anti-TAB1 antibody, Western blot", "key": {"[1]": {"target": "XIAP (human (endogenous in HCT116 and RKO)) (UniProt P98170)"}, "[2]": {"target": "survivin (human (endogenous in HCT116 and RKO)) (UniProt O15392)"}, "[3]": {"target": "T1, TAB1 (human (endogenous in HCT116 and RKO)) (UniProt Q15750)", "T1 sequence": "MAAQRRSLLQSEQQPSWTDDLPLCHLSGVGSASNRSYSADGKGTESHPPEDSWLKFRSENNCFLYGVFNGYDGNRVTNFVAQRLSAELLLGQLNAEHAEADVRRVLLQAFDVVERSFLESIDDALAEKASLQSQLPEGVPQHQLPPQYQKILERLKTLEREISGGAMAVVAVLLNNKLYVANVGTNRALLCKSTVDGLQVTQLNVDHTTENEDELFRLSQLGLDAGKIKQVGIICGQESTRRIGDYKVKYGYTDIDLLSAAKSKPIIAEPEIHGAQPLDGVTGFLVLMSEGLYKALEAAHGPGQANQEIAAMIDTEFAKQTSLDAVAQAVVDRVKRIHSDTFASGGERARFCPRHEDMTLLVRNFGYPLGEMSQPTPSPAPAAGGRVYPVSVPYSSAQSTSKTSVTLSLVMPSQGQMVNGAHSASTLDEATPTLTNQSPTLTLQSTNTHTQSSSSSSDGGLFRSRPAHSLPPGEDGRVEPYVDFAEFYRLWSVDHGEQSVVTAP"}}, "note": "These are yes or no findings as the source states them, for the method shown. In cells and extracts the contact can be indirect. Some binding calls cover weakened binding; strength is not graded here."}
{"molecule": "survivin (from UniProt O15392 1-142)", "values": [{"measurement": "binding", "setting": "[1]", "result": "binds"}]}
{"molecule": "XIAP (from UniProt P98170 1-497)", "values": [{"measurement": "binding", "setting": "[2]", "result": "binds"}]}
{"molecule": "TAK1 (protein, UniProt O43318 1-606) MSTASAASSSSSSSAGEMIEAPSQVLNFEEIDYKEIEVEEVVGRGAFGVVCKAKWRAKDVAIKQIESESERKAFIVELRQLSRVNHPNIVKLYGACLNPVCLVMEYAEGGSLYNVLHGAEPLPYYTAAHAMSWCLQCSQGVAYLHSMQPKALIHRDLKPPNLLLVAGGTVLKICDFGTACDIQTHMTNNKGSAAWMAPEVFEGSNYSEKCDVFSWGIILWEVITRRKPFDEIGGPAFRIMWAVHNGTRPPLIKNLPKPIESLMTRCWSKDPSQRPSMEEIVKIMTHLMRYFPGADEPLQYPCQYSDEGQSNSATSTGSFMDIASTNTSNKSDTNMEQVPATNDTIKRLESKLLKNQAKQQSESGRLSLGASRGSSVESLPPTSEGKRMSADMSEIEARIAATTAYSKPKRGHRKTASFGNILDVPEIVISGNGQPRRRSIQDLTVTGTEPGQVSSRSSSPSVRMITTSGPTSEKPTRSHPWTPDDSTDTNGSDNSIPMAYLTLDHQLQPLAPCPNSKESMAVFEQHCKMAQEYMKVQTEIALLLQRKQELVAELDQDEKDQQNTSRLVQEHKKLLDENKSLSTYYQQCKKQLEVIRSQQQKRQGTS", "values": [{"measurement": "binding", "setting": "[3]", "result": "binds"}]}
